Test results taken from PMC6028546, “Control of mitotic chromosome condensation by the fission yeast transcription factor Zas1”.
These are yes or no findings as the source states them, for the method shown. In cells and extracts the contact can be indirect. Some results given as binding are weak or reduced against the parent protein; the word gives no strength. Where a sequence is shown, tags or fusion partners need not be part of it. Blank lines part the entries; values can stand above or below the binder they belong to.

Target: T1, Cnd2-PK6 (condensin kleisin subunit Cnd2 with a PK6 tag) (S. pombe) (UniProt Q9Y7R3)
T1 sequence: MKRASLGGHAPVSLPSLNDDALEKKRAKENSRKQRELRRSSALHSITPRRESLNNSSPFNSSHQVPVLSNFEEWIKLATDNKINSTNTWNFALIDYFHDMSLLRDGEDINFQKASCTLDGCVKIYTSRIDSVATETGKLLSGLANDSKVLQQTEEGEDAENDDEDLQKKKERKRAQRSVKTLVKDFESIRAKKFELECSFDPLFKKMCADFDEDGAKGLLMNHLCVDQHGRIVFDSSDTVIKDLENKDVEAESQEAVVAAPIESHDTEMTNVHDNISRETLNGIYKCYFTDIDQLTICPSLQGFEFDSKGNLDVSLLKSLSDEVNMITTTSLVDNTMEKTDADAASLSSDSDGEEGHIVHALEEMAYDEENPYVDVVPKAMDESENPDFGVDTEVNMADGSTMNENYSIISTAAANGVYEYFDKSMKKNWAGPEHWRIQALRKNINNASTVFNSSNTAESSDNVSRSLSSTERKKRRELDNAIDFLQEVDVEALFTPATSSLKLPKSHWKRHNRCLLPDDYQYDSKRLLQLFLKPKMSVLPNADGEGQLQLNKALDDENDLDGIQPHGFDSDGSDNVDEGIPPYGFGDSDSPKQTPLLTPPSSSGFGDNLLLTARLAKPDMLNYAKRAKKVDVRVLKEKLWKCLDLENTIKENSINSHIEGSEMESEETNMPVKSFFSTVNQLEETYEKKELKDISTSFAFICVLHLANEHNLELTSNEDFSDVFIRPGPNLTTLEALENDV
Assay: co-IP; Cnd2-PK6 precipitated with anti-V5 antibody and protein A Dynabeads from S. pombe lysates (zas1+ or zas1-Δaj3; 150 mM NaCl, 0.1% NP-40, DNase I); SDS-PAGE, silver staining

binding: binds
B1: Cut3 (condensin subunit) (protein, UniProt P41004 1-1324)
chain: MSDKGIFRTSSTPSIVDVTPDRGERPRKLVRSVLESPSQKDVASIVKIEQTPSRPFFNDFLKKRITDSLNERPNLLNKFMSAQDGTPSKSTGFNERSSQLVSEFTTTEDIENCEETTQVLPPRLVVYELRLTNFKSYAGTQIVGPFHPSFSSIVGPNGSGKSNVIDALLFVFGFRASKLRQSKASALIHKSATHPSLDSCDVEITFKEVNSDFTYVDGSELTVRRTAYKNNTSKYFVNGVESSFSAVSNLLKEKGIDLNHKRFLILQGEVESIAQMKPRAISEGDDGLLEYLEDIIGTSKYKPIIEENMQELSNSDDICAEKESRLKLVLSEKAKLEDSKNSVLSFLKDENELFMKQNQLYRTILYETRNKKTLVQNLLNSLEGKLQAHLEKFEQTERDISEKNEEVKSLREKAAKVKNDCTSEKKTRQSYEQQTVKIEEQLKFLLNKEKKLKKSIEALSFEKSEAENSLSSHDIDSQKLNSEIADLSLRLQQEELSLDDIRKSLQGKTEGISNAIEEKQKAMAPALEKINQLTSEKQILQVELDMLLNKENDLINDVESSQSSLDKLRNDAEENRNILSSKLKVLSDLKGEKKDVSKNIERKKETVHNTYRNLMSNRTKLEEMKASLSSSRSRGNVLESLQRLHESDNLNGFFGRLGDLATIDEAYDVAISTACPALNHIVVDNIETGQKCVAFLRSNNLGRASFIILKELAQKNLARIQTPENVPRLFDLLRFNDQKFAPAFYNVLQNTLVAKNLEQANRIAYGKTRWRVVTLSGQLIDKSGTMTGGGTRVKKGGMSSAITSDVSPASVETCDKQVQLEDTRYRQHLSELESLNQRFTEISERIPSAELEISKLQLDVSACDRLVAGEERRILQLKSDLKSIRNNNERKRNLQNKISNMDKEVEAININNEGLVTEIKTLQDKIMEIGGIRYRIQKSKVDDLHEQLKFVKDKLNKMSFKKKKNEQRSQSFQVELSNLTSEYDTTTESIATLKTELQSLNKYVDEHKSRLREFENALWDINSSIDELVKFIEFESKQMNSVKAERIELENQIQEQRTALSEVGNNENKYLKLMSNLKLHNLTEFCDQTTMDSTFPEYSEDELSSVDKSELVSNISVLKKKTEDREVDINVLSEYRRCNKEAEKRDSDYQSELQKRTDLKKVVTDLQSQRLDEFMYGFGIISMKLKEMYQIITMGGNAELELVDSLDPFSEGVLFSVMPPKKSWKNISNLSGGEKTLSSLALVFALHNYKPTPLYVMDEIDAALDFKNVSIVANYIKERTKNAQFIVISLRSNMFELSSRLVGIYKTANMTKSVTINNKEILTD

binding: binds
B2: Cnd3 (condensin HEAT-repeat subunit) (protein, UniProt Q10429 1-875)
chain: MSCIQIISSSQTSIAGHRKLCNKLFTLRTQEGFETDILRALNIILTVKKGNSNADRVLRFLVTFVNYLQQKDPEIDIVQPILKHILRGLDAKDKTVRYRCCQIIARVVNCVKEIDDDLYNTLKEKLLSRVLDRESIVRLEAVVALSRLQEDTGDEENDVRNILLFLLQNDPSSEVRRSVLLNIEVSNSTLPFILERARDVDAANRKCVYARVLPKIGDFRYLSIKKRVRILKWGLNDRDESVEKAAADMLAYQWIENADNNLLELLERLDVSNNSDVAVLAIKKFFDVRVDSLSQLEFPEQFWLELTAESSLLARTFNEICIEKNYTDLLDKMPEVVQLTYYIERQYVSLRDKSSYDESCFIIEQLLYIGLSQDMVDEIGRRKLLKSLTNSLSTMALPDSLISLHIELLRKLCSSENDFCSLLVEIITEVFEQGHSQNQTEEQGNSNAPELNKNDYEGEEITVSQKSPSPSLPPNELNEPEPDDMDGYKEAFNELRCLSYVQCLFENITSSLNENLYMVDMLKTLIIPAVRSHDLPIREKGLECLSLVCLLNADLAFENVPLYLHCYEKGSVVLKCTAIRTLTDMLIQHGKAKFTEYEDAISSILFEALGEFENAELQTLGAEAIAKLLVILHYRDELFLKPLIIQYFEPNTVDNHALRQVLGYFFPVYAFGAHENQWRIATIFCDALLSLLEIYRDLDEDDVQLSIGHIAQQMLDWTDNEKLYERKTQTGDDYIALNHNVHLHLANMIFESLPNASEGKERKFMISLLGKLKIPTDLPSSDYQRTKRKLETYESHGFTMDSTSLSILAKFERMLLQNEEARSKFEETEEERLMENAEENEHAGAEAISGEIIPDTVEANMEDEEEVYVKQEEDL
